Test results: PubChem BioAssay AID588590 (National Center for Advancing Translational Sciences (NCATS), 2011)
The whole screen tested about 390,000 compounds, of which about 4,000 (1%) were called active. This list was built around the results that the source calls inconclusive (neither active nor inactive); the mix of calls is not that of the screen. Calls come from the whole dose curve; as a rule, active = well fitted inhibition curve with a large enough effect; inconclusive = small, poorly fitted or top-dose-only effect, or another doubt; inactive = no such curve, though single readings can be large or run the other way. Potencies beside an inconclusive call are fits to weak or partial responses and may not hold up.

By UniProt entry, the sequences of proteins in these tests, tags left out. Where a name states a change or a piece, a line headed by the entry shows the natural chain unless it says otherwise.
UniProt Q9UNA4: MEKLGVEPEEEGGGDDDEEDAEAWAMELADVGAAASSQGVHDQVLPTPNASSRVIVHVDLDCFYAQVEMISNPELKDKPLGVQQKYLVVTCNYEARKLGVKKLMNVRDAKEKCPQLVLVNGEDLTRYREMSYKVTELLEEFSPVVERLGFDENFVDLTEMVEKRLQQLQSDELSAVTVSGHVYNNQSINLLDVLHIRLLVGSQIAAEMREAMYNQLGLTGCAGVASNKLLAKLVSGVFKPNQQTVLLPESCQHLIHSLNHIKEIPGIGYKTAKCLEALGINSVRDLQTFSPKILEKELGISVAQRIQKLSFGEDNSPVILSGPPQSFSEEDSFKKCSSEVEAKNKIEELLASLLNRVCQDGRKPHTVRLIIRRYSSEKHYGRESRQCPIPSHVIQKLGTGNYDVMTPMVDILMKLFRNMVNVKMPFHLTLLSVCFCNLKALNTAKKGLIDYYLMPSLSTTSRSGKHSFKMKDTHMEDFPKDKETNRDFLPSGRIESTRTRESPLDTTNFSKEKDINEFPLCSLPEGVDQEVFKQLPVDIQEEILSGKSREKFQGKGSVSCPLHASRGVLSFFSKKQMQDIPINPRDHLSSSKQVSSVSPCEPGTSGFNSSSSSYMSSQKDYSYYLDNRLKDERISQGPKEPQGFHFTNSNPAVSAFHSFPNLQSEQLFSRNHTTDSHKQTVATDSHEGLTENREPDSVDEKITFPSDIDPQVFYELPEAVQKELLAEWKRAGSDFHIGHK

The compounds below were run against DNA polymerase iota (Homo sapiens) (UniProt Q9UNA4) (assay: qHTS for Inhibitors of Polymerase Iota). Conditions: Pol iota fluorescent replication assay, 10 min; series mostly up to 115 µM; activity, negative = inhibition: at the top concentration.
In short: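 Fluorescent replication assay read twice, at 0 min and 10 min after adding 50 nM (final) substrate. Enzyme (10 nM) and compounds were first incubated 15 min at room temperature; enzyme-free buffer wells were negative controls.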
Potency is the fitted concentration of half-maximal effect.

Row | Compound | Potency | activity, negative = inhibition
1 | Cc1nnc(SCC(=O)NC(C)(C)C)n1CCc1ccccc1 | inconclusive: 79.4 µM [inhibitor, partial curve, poor fit] | –
2 | O=C(COC(=O)c1ccc(S(=O)(=O)NCc2ccco2)cc1)NCCC1=CCCCC1 | inconclusive: 112 µM [inhibitor, partial curve, poor fit] | –
3 | Nc1ccc(-c2nc3ccc(-c4nc5ccc(N)cc5[nH]4)cc3[nH]2)cc1 | active: 3.98 µM | –
4 | NS(=O)(=O)c1ccc(CCNC(=O)c2cc3ccccc3s2)cc1 | active: 22.4 µM | –
5 | Cc1ccc(S(=O)(=O)c2cn(Cc3ccccc3F)c3cc4c(cc3c2=O)OCO4)cc1 | – | inactive: 4.26%
6 | COc1ccc(/C(O)=C2\C(=O)C(=O)N(Cc3ccco3)C2c2ccc(OC)cc2OC)cc1 (stereo unspecified) | inconclusive: 39.8 µM [inhibitor, partial curve, poor fit] | –
7 | Cc1c(NC(=O)COC(=O)c2cccn2C)c(=O)n(-c2ccccc2)n1C | – | inactive: 7%
8 | COc1ccc(OC)c(CNC(=O)C2CCN(S(=O)(=O)c3cn(C)cn3)CC2)c1 | inconclusive: 89.1 µM [inhibitor, single point] | –
9 | O=C(CN1CCOCC1)OCCCC1CCCCC1 | inconclusive: 39.8 µM [inhibitor, single point] | –
10 | CSCCC(NC(=O)c1ccccc1)C(=O)N1CC=C(c2ccccc2)CC1 (stereo unspecified) | inconclusive: 79.4 µM [inhibitor, partial curve, poor fit] | –
11 | Cc1ccc(S(=O)(=O)N2CCN(C(=O)COC(=O)c3ccc([N+](=O)[O-])o3)CC2)c(C)c1 | inconclusive: 50.1 µM [inhibitor, partial curve, poor fit] | –
12 | CC(=O)C1=C(O)C(=O)N(c2cccc(Br)c2)C1c1ccccc1Cl (stereo unspecified) | – | inactive: -1.59%
13 | CC[C@@]1(C(=O)OC)N[C@H](CN(C)S(=O)(=O)c2ccc(F)cc2)[C@@H]2C(=O)N(C)C(=O)[C@@H]21 | inconclusive: 8.91 µM [inhibitor, partial curve, poor fit] | –
14 | COc1ccccc1Cc1noc(-c2cc(Cl)ccc2OC)n1 | inconclusive: 79.4 µM [inhibitor, single point] | –
15 | COC(=O)[C@]1(C)N[C@H](c2ccc(-c3cccc(Cl)c3)c(OC)c2)[C@@H]2C(=O)N(C)C(=O)[C@@H]21 | inconclusive: 17.8 µM [inhibitor, single point] | –
16 | CCc1nc(N2CCCCC2)c2oc3ccccc3c2n1 | inconclusive: 28.2 µM [inhibitor, single point] | –
17 | CN(C)S(=O)(=O)c1cc(NC(=O)COC(=O)CC2CC3CCC2C3)ccc1Cl (stereo unspecified) | inconclusive: 39.8 µM [inhibitor, partial curve, poor fit] | –
18 | COc1ccccc1C1CC(c2cccs2)=Nc2ccccc2S1 (stereo unspecified) | inconclusive: 39.8 µM [inhibitor, partial curve, poor fit] | –
19 | O=C(CSc1nnc2c(n1)[nH]c1ccccc12)NC1CCCCC1 | inconclusive: 79.4 µM [inhibitor, partial curve, poor fit] | –
20 | CCOC(=O)[C@H]1[C@H]2COc3ccc(OC)cc3[C@@H]2N2C(=O)c3ccc(C)cc3NC(=O)[C@@]12C | inconclusive: 14.1 µM [inhibitor, partial curve, poor fit] | –
21 | COc1cc(Cl)ccc1OCc1cc(C(=O)NCC(C)c2ccccc2)no1 (stereo unspecified) | inconclusive: 39.8 µM [inhibitor, partial curve] | –

Single records, as listed above. Values in the order: Potency	activity, negative = inhibition
Cc1ccc(S(=O)(=O)c2cn(Cc3ccccc3F)c3cc4c(cc3c2=O)OCO4)cc1 as listed: –	inactive: 4.26%
CCc1nc(N2CCCCC2)c2oc3ccccc3c2n1 as listed: inconclusive: 28.2 µM [inhibitor, single point]	–
COc1ccccc1C1CC(c2cccs2)=Nc2ccccc2S1 (stereo unspecified) as listed: inconclusive: 39.8 µM [inhibitor, partial curve, poor fit]	–

Additional results.

Row | Compound | Potency | activity, negative = inhibition
22 | O=C(O)CN1C(=O)/C(=C\c2ccccc2OCc2ccc(Cl)cc2)SC1=S | – | inactive: 44.9%
23 | OCCN1CCN(C(=S)Nc2cccc(C(F)(F)F)c2)CC1 | inconclusive: 89.1 µM [inhibitor, partial curve, poor fit] | –
24 | CCN(CC)S(=O)(=O)c1ccc(NCc2ccccn2)nc1 | inconclusive: 20 µM [inhibitor, single point] | –
25 | C=CCNC(=O)COc1ccccc1C#N | inconclusive: 35.5 µM [inhibitor, single point] | –
26 | Cc1ccc(-n2c(=O)c3cccnc3n2CC(=O)Nc2cccc(C)c2C)cc1 | – | inactive: -11.1%
27 | COCCCNC(=O)CCn1c(=O)c2ccccc2n(CC(=O)Nc2c(C)cc(C)cc2C)c1=O | inconclusive: 79.4 µM [inhibitor, single point] | –
28 | O=C(O)c1cc2ccccc2n1-c1ccccc1 | inconclusive: 39.8 µM [inhibitor, single point] | –
29 | COc1ccc(C=NNc2ccc(S(=O)(=O)Nc3ccccc3C(=O)O)cc2[N+](=O)[O-])c(OC)c1 | inconclusive: 25.1 µM [inhibitor, partial curve, poor fit] | –
30 | CCOc1ccccc1CNC(=O)c1cc2c(=O)n(Cc3ccccc3)ccc2nc1C | inconclusive: 56.2 µM [inhibitor, partial curve, poor fit] | –
31 | CCN1CCN(C(=O)CN(c2ccccc2C)S(C)(=O)=O)CC1 | inconclusive: 89.1 µM [inhibitor, single point] | –
32 | COc1ccc(-c2csc(N(CCCN(C)C)C(=O)c3ccccc3Cl)n2)cc1 | inconclusive: 50.1 µM [inhibitor, partial curve, poor fit] | –
33 | Cc1cccc(C)c1NC(=O)C(C)Sc1n[nH]c(-c2ccncc2)n1 (stereo unspecified) | – | inactive: 29.1%
34 | O=C(NNC(=O)c1ccccc1Cl)c1ccc2c(=O)n3c(nc2c1)CCC3 | – | inactive: 55.7%
35 | Cc1cc(C(=O)CSc2nc3ccc(Cl)cc3[nH]2)c(C)n1C | inconclusive: 12.6 µM [inhibitor, partial curve, poor fit] | –
36 | COCCCNC(=O)CSc1ccsc1[N+](=O)[O-] | inconclusive: 28.2 µM [inhibitor, full curve, poor fit] | –
37 | Cc1cc(C)n(S(=O)(=O)/C=C/c2ccccc2)n1 | inconclusive: 39.8 µM [inhibitor, partial curve, poor fit] | –
38 | CC(=O)c1ccc(NC(=O)c2noc(C)c2[N+](=O)[O-])cc1 | inconclusive: 50.1 µM [inhibitor, partial curve, poor fit] | –
39 | COc1cc(/C=C2\C(=N)N3N=C(S(C)(=O)=O)SC3=NC2=O)ccc1OCCOc1ccc(C)cc1 | inconclusive: 25.1 µM [inhibitor, partial curve, poor fit] | –
40 | O=C(/C=C/c1cccs1)N1CCC2(CC1)Oc1ccc(Cl)cc1C(=O)C21CC(c2cccnc2)=NO1 (stereo unspecified) | inconclusive: 44.7 µM [inhibitor, partial curve, poor fit] | –
41 | COc1cc(OC)c(NC(=O)c2c(C)nn(-c3ccc(C)cc3)c2-n2cccc2)cc1Cl | – | inactive: 47.7%
42 | Cc1cccc2nc(-c3cccc(NC(=O)c4ccc(Cl)cc4)c3)cn12 | inconclusive: 20 µM [inhibitor, full curve, poor fit] | –

Row | Compound | Potency | activity, negative = inhibition
43 | O=C1c2ccccc2-c2nc3ccccc3cc21 | – | inactive: 90.5%
44 | COc1ccc(OCC(=O)Nc2cc(NC(=O)COc3ccc(OC)cc3)cc(C(=O)O)c2)cc1 | inconclusive: 35.5 µM [inhibitor, partial curve] | –
45 | Cc1ccc(C(=O)NNC(=O)c2nn(-c3ccc(F)cc3)ccc2=O)cc1 | – | inactive: -6.31%
46 | COc1ccc(-c2cc(=O)c3c(O)cc(OC4OC(COC5OC(C)C(O)C(O)C5O)C(O)C(O)C4O)cc3o2)cc1O (stereo unspecified) | inconclusive: 12.6 µM [inhibitor, partial curve, poor fit] | –
47 | Cc1cc(=O)n2[nH]c(-c3cccc(Cl)c3)cc2n1 | inconclusive: 70.8 µM [inhibitor, single point] | –
48 | O=C(/C=C/c1ccccc1)COC(=O)c1ccccc1 | inconclusive: 14.1 µM [inhibitor, full curve, poor fit] | –
49 | O=C(Oc1ccc(-c2cnc3ccccc3n2)cc1)c1cc([N+](=O)[O-])ccc1Cl | inconclusive: 0.631 µM [inhibitor, full curve, poor fit] | –
50 | CC(C)(C)C(=O)Cn1c(=O)n(CCCCCC(=O)NCc2ccc3c(c2)OCO3)c(=O)c2sccc21 | – | inactive: -12.1%
51 | CCOC(=O)N1CCN(/C=C(\C#N)c2nc3ccccc3s2)CC1 | inconclusive: 22.4 µM [inhibitor, single point] | –
52 | COc1ccc(S(=O)(=O)Oc2ccc3ccccc3c2)cc1 | – | inactive: -6%
53 | CC(=O)NC(c1cccs1)c1cc(Cl)c2ccccc2c1O (stereo unspecified) | inconclusive: 39.8 µM [inhibitor, single point] | –
54 | Cc1ccc(CN2CC(C(=O)Nc3nnc(SCc4c(Cl)cccc4Cl)s3)CC2=O)cc1 (stereo unspecified) | inconclusive: 14.1 µM [inhibitor, full curve, poor fit] | –
55 | O=C(Nc1cc(S(=O)(=O)Nc2ccc(Cl)cc2)ccc1O)c1ccc(S(=O)(=O)N2CCCCCC2)cc1 | inconclusive: 2 µM [inhibitor, full curve, poor fit] | –
56 | CC1(C)CC[C@]2(C(=O)O)CC[C@]3(C)C(=CCC4[C@@]5(C)CC[C@H](O)C(C)(C)C5CC[C@]43C)C2C1 (stereo partly specified) | inconclusive: 50.1 µM [inhibitor, partial curve, poor fit] | –
57 | Cc1cccc(NC(=O)CCS(=O)(=O)c2ccc3c(c2)NC(=O)CS3)n1 | inconclusive: 63.1 µM [inhibitor, partial curve, poor fit] | –
58 | COc1cc(Cl)c(C)cc1NC(=O)CCCN1C(=O)C(c2ccccc2)Oc2cccnc21 (stereo unspecified) | – | inactive: -1.55%
59 | OCc1nc2ccccc2[nH]1 | – | inactive: 12.6%
60 | O=C(NCc1ccc2c(c1)OCO2)c1ccc2c(c1)N(Cc1cccc(Cl)c1)C(=O)c1ccccc1S2 | inconclusive: 39.8 µM [inhibitor, partial curve, poor fit] | –
61 | Cc1cc(C(=O)Cn2ncc(Cl)c(Cl)c2=O)c(C)n1CC(F)(F)F | inconclusive: 20 µM [inhibitor, full curve, poor fit] | –
